Data taken from article PMC3355120, “LGR6 Is a High Affinity Receptor of R-Spondins and Potentially Functions as a Tumor Suppressor” (PLoS ONE, 2012).
Results are given in words; binding and its absence hold for the method and conditions named. Some binding calls cover weakened binding; strength is not graded here. Tags and fused reporters may be left off the sequences shown.

By UniProt entry, the sequences of proteins in these tests, tags left out. Residues count along the entry.
UniProt Q9Z132, residues 21-265: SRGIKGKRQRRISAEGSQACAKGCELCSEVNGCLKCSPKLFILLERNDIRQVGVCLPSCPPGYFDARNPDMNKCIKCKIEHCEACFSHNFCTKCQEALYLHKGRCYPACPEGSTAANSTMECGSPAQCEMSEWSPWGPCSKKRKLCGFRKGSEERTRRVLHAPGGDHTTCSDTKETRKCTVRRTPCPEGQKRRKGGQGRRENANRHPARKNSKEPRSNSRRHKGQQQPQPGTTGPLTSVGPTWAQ

Target: T1, human LGR6 (leucine-rich repeat containing, G protein-coupled receptor 6) with a Flag-tag at the N-terminus, wild type (human) (UniProt Q9HBX8)
T1 sequence: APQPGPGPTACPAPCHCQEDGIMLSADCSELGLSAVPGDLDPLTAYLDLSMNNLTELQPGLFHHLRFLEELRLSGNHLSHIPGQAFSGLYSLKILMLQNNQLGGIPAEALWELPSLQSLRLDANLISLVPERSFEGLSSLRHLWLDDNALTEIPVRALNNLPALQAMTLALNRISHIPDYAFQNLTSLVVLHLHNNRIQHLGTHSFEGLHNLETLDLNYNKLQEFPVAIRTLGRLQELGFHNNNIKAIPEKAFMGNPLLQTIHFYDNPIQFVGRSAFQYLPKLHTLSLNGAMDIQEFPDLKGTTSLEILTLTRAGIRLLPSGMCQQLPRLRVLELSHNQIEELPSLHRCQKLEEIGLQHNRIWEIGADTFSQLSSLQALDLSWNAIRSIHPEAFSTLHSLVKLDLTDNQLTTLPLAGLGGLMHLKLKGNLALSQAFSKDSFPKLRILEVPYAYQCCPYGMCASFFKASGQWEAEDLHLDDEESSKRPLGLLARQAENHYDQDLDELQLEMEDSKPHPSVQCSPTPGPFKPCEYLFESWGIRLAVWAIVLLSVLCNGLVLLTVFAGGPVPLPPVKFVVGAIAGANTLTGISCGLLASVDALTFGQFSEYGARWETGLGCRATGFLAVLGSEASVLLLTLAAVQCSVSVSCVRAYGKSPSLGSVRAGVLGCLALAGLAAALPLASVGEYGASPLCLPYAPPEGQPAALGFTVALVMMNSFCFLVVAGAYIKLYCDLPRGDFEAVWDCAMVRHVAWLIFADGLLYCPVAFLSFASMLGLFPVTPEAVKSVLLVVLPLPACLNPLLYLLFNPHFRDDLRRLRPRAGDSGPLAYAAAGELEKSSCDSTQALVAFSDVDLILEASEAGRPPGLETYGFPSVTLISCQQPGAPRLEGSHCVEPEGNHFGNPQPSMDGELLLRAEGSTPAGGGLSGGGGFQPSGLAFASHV
Test: whole-cell-based competition binding assay; the pair that is displaced: mRSPO1-Fc on HEK293 cells stably expressing Flag-LGR6, without and with serial dilutions of RSPO1–4

binding: binds
Substance: fusion protein consisting of mouse RSPO1 with mouse IgG2a-Fc at the C-terminus (from UniProt Q9Z132 21-265) (Fc fusion)
